Test results: US7041701B2, “Triterpenoid derivatives” (Univerzita Palackeho V Olomouci, priority 2000, dated 2006)
At least one structure is not confirmed: it was looked up by name or label, or the drawing left a doubt.

Legend:
A549 lung cancer cells = test: Apoptosis morphology by scanning electron microscopy; format: cell-based, human; conditions: A549, 2 μM, 12 hours, scanning electron microscopy (FIG. 1)
From the text: To analyse the mechanisms of betulinine-induced cytotoxicity, it is important to distinguish apoptosis from the other major form of cell death, necrosis. Finally, at the tissue level, apoptosis produces little or no inflammation, since shrunken portions of the cell are engulfed by the neighbouring cells, especially macrophages, rather than being released into the extracellular fluid. In contrast, in necrosis, cellular contents are released into the extracellular fluid, and thus have an irritant affect on the nearby cells, causing inflammation. […] Thirdly, at the molecular level, a number of biochemical processes play an important role in the induction of apoptosis. However, the majority of them are not well understood, and they result in activation of proteases and nucleases, which finally destruct key biological macromolecules—proteins and DNA. For the detection of apoptotic versus necrotic modes of cell death, the morphology was assessed by scanning electron microscopy.
A549 cell line was cultured on tissue culture treated glass coverslips in 6-well culture plates with or without 2 μM concentration of I.3 or betulinic acid at 37° C. and 5% CO2 for 12 hours. Following incubation, the coverslips were washed in Hank's buffered salt solution and processed as described below.
Cells were fixed in 2% glutaraldehyde/PBS overnight at 4° C., dried and covered with gold under vacuum. […]

Rb protein = Rb protein phosphorylation state, SDS-PAGE/Western blot in CEM cells; format: cell-based, human; conditions: Western blot (FIG. 3)
Protocol: Since Rb protein contains multiple phosphorylation sites for CDKs, its phosphorylated form has molecular weight about 110 kDa, while the molecular weight of hypophosphorylated protein is only 105 kDa This small difference in molecular weight is enough to separate both forms by conventional SDS-PAGE electrophoresis.
CEM cells were cultured in Dulbeco's modified essential medium with 4.5 g dextrose/l, 10% of foetal calf serum, 2 mM glutamine, 100 U/ml penicillin and 100 μg/ml streptomycin with/without below indicated concentrations of betulkic acid (BA) or I.3. At selected time points, cells were harvested, washed in ice cold Hank's balanced salt solution and solubilized on ice using the SDS-PAGE sample buffer containing protease and phosphatase inhibitors (10 μg/ml of leupeptin, 10 μg/ml of aprotinin, 10 μg/ml of soybean trypsin inhibitor, 100 μmol of benzamide, 1 mM of sodium vanadate, 1 mM of NaF, 1 mM of phenylphosphate) and boiled immediately.
Total cellular proteins (100 μg/well) were separated on SDS-PAGE electrophoresis, blotted on polyvinyldifluoride membranes and total Rb protein, including proteolytic fragment(s) were detected using a pRb monoclonal antibody (Oncogene, Germany, Rb(AS5), Cat# OP66 Rev 2 Sep. 1996 EB, Clone LM95.1) and visualized by chemilumniuscence (ECL-Westeg Blotting System, Amersham). […]

Compound: C=C(C)[C@@H]1CC[C@]2(C(=O)O)CC[C@]3(C)[C@H](CC[C@@H]4[C@@]5(C)CC[C@H](O)C(C)(C)[C@@H]5CC[C@]43C)[C@@H]12 [Betulinic acid, betulinic acid, reference compound]
- morphologic markers of apoptosis (A549 lung cancer cells): cytoplasmatic membrane blebbing, an early sign of apoptosis
- dephosphorylation of Rb protein (shift 110 kDa to 105 kDa) (Rb protein): not
